Data taken from the supplement of paper PMC10849652.
The list shows a part of the results.

By UniProt entry, the sequences of proteins in these tests, tags left out. Where a name states a change or a piece, a line headed by the entry shows the natural chain unless it says otherwise.
UniProt Q9H1U9: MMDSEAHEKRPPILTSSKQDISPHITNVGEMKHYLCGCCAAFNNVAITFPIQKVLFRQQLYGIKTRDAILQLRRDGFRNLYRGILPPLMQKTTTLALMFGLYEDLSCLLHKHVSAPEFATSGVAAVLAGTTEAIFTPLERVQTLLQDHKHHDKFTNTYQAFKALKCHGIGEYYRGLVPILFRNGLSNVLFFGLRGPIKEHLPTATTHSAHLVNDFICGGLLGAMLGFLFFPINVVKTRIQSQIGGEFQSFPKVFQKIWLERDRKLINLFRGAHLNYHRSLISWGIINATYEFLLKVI
UniProt Q9UBX3: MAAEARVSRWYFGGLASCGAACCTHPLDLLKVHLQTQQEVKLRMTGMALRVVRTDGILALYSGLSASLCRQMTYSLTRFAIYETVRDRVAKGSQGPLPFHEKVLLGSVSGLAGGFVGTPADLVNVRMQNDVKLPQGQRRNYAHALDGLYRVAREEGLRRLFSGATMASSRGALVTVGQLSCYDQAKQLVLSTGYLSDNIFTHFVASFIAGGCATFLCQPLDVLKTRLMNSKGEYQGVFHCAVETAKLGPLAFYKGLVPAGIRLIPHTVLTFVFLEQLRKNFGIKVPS
UniProt Q8IWA5: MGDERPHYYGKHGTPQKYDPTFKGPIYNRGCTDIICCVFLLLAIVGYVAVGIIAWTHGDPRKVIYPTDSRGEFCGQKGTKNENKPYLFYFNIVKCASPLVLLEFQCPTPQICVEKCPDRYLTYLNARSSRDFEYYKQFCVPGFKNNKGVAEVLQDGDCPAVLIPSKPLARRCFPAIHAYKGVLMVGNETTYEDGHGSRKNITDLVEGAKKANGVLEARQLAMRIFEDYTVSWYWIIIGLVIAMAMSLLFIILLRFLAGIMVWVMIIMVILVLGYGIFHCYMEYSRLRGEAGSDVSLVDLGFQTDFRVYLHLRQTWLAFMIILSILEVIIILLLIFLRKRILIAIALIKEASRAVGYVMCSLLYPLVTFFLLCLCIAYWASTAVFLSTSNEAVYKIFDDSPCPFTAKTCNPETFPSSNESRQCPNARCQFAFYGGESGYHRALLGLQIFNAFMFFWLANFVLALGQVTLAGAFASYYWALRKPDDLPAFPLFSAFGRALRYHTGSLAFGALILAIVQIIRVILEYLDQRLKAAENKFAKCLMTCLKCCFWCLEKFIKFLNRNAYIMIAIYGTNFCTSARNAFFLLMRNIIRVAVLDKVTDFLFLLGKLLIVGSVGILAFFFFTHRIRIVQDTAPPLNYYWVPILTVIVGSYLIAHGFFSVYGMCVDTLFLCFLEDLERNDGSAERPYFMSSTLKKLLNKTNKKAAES
UniProt Q6ZP29: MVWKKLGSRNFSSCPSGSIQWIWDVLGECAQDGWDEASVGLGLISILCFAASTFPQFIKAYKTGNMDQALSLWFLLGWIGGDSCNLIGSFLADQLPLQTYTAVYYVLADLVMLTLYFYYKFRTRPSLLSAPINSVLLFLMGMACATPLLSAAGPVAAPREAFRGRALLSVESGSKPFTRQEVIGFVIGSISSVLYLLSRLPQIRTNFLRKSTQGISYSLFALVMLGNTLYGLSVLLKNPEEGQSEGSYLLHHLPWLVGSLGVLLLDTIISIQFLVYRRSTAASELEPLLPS
UniProt Q8WV83: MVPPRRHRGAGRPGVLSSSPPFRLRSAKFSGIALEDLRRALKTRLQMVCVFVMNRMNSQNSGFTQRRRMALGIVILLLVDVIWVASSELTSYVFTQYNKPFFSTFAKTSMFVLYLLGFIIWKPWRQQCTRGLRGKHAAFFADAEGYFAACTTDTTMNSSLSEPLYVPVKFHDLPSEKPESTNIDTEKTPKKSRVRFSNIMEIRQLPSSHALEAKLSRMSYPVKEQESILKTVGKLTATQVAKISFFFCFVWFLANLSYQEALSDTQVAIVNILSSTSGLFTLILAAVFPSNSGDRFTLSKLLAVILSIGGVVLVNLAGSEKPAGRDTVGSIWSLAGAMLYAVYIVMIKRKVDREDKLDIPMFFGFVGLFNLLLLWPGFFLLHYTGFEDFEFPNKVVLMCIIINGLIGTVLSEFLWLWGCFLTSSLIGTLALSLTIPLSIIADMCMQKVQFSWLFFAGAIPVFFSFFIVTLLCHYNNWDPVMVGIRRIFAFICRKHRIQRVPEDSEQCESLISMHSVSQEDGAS
UniProt Q9BXP2: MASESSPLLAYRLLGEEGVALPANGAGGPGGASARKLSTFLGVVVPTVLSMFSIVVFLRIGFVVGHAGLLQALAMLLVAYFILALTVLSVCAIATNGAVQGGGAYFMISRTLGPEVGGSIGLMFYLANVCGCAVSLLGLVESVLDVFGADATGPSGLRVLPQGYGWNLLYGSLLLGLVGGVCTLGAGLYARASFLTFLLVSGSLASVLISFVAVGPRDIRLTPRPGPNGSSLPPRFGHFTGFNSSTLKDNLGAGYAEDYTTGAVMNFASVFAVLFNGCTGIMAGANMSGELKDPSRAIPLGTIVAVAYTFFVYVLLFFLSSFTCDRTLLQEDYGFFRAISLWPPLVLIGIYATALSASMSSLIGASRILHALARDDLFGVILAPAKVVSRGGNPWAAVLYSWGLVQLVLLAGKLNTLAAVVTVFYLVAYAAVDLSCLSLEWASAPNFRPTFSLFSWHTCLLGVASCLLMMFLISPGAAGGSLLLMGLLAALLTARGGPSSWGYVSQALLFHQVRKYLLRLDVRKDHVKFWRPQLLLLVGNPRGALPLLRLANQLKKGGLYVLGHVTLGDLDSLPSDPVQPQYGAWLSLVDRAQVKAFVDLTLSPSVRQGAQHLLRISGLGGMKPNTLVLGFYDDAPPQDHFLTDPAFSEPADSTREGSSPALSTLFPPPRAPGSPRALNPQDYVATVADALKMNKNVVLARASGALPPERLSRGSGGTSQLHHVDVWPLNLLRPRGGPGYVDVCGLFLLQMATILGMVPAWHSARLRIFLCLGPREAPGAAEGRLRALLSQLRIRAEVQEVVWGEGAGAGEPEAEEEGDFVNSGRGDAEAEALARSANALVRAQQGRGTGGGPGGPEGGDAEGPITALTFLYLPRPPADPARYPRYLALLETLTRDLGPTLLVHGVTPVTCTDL
UniProt Q6P1K1: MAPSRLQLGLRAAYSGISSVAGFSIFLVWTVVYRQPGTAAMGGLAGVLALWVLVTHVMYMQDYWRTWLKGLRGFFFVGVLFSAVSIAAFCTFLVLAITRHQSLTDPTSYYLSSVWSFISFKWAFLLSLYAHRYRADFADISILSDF
UniProt O00400: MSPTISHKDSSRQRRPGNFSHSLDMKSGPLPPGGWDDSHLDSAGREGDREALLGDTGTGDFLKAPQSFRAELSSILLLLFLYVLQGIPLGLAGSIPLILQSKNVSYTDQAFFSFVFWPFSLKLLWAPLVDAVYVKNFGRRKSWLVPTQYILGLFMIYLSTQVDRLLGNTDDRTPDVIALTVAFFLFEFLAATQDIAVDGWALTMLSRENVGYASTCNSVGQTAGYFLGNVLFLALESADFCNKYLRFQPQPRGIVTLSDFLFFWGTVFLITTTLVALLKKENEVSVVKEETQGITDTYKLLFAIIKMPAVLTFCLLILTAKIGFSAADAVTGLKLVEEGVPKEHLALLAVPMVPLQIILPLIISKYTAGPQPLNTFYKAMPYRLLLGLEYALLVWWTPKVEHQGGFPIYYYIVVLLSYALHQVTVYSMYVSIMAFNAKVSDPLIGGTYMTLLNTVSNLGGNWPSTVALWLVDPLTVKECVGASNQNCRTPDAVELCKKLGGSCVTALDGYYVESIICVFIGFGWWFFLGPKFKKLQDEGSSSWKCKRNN
UniProt P08195: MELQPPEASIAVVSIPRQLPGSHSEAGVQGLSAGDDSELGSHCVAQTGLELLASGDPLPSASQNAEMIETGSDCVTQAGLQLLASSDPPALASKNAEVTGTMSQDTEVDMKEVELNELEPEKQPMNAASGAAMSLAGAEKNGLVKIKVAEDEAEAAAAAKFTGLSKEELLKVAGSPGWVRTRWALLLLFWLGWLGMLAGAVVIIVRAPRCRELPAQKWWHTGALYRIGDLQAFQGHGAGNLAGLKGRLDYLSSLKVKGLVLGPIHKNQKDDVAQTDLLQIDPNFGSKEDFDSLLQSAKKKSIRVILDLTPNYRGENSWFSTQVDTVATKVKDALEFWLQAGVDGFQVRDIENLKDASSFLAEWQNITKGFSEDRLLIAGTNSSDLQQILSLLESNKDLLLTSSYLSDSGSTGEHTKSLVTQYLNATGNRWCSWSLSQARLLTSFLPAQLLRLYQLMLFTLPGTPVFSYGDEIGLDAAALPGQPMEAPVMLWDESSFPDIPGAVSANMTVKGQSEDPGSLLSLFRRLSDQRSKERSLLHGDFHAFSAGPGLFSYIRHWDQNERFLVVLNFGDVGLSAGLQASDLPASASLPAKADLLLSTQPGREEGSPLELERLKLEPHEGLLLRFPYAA
UniProt O75387: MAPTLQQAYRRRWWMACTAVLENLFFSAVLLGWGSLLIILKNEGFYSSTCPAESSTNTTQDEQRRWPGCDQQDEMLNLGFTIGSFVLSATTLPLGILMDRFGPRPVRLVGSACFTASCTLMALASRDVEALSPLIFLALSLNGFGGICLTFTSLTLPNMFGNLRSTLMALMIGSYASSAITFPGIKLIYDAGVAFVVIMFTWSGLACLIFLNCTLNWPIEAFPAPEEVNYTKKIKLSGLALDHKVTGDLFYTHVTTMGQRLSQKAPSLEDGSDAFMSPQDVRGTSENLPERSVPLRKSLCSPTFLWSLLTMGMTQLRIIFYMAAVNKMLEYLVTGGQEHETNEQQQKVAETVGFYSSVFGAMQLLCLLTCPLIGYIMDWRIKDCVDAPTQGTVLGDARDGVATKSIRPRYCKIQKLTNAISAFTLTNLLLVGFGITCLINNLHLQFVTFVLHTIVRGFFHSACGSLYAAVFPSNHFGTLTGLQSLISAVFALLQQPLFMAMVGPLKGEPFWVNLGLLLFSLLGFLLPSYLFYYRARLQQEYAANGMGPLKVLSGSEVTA
UniProt Q96H78: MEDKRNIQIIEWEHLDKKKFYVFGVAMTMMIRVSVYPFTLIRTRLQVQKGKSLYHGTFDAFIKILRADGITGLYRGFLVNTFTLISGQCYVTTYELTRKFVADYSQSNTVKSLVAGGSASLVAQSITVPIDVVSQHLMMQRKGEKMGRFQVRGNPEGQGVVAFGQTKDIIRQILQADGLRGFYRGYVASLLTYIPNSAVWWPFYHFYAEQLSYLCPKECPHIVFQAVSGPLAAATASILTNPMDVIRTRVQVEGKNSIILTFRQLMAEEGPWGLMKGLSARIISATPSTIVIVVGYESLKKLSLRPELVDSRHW
UniProt Q9Y619: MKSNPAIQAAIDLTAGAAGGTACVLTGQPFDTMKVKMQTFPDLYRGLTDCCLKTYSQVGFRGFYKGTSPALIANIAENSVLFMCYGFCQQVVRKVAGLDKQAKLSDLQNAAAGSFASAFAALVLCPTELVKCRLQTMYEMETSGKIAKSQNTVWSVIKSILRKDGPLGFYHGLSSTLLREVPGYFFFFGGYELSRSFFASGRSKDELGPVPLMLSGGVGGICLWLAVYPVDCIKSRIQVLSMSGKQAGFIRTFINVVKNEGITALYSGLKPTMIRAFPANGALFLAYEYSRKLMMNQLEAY
UniProt P53985: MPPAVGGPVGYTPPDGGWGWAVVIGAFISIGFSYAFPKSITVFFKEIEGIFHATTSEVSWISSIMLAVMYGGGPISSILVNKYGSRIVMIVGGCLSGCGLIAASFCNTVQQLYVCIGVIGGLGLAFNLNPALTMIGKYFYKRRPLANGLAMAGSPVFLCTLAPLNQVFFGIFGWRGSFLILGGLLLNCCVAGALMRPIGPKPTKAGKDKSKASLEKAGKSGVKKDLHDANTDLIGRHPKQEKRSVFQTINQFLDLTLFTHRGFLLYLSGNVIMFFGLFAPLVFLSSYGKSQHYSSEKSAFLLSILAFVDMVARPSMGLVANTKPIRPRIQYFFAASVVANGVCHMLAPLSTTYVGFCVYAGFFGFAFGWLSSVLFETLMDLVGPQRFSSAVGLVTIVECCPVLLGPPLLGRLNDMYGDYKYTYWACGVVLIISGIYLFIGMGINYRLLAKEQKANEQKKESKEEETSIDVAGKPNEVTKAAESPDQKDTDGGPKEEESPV
UniProt Q15758: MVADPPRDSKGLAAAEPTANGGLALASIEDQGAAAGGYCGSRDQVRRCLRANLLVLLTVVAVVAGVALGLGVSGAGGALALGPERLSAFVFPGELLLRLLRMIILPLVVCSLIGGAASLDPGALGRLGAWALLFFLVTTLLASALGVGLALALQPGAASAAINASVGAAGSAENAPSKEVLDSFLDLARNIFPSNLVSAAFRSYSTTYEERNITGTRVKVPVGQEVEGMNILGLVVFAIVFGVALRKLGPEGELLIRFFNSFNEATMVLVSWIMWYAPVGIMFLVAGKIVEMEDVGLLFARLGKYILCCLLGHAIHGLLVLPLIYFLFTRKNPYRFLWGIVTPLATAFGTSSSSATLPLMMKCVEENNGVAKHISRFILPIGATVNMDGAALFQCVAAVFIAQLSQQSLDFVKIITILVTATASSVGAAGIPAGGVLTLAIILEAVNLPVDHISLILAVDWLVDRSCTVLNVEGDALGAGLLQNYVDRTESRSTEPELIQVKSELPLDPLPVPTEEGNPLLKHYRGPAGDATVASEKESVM

What was measured:
Assay in all cases: log2 fold change, soluble protein after heating vs DMSO (PISA); higher = thermal stabilisation; K562 cells, 10 uM, 30 min; active = over 0.2 and 3.5 SD of the protein, either way, in both replicates (recomputed)
[1] = compound: C1=CC=C(C=C1)[C@H](COC2=CC3=C(C=C2)NC(=O)N3)NC(=O)C4=CC=CN(C4=O)CC5=CC(=C(C=C5)F)F
In short: (§1)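 Soluble protein was defined as the supernatant after 21,000xg for 90 min. It came from K562 cells at 2×10^6 cells/mL given 10 μM compound for 30 min, heated in aliquots for 3 min across 48°C-58°C, pooled, and extracted in PBS with 0.5% NP-40 at 4°C, and was quantified by TMTpro 16plex LC-MS/MS with equalised channel sums. Thermal stability against control samples, from duplicates, is reported as log2 fold change.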

[2] = compound: CC1=C(SC2=C1C(=N[C@H](C3=NN=C(N32)C)CC(=O)N)C4=CC=C(C=C4)Cl)C
In short: as §1

[3] = compound: CC1=C2C(=CC=C1)N=C(N(C2=O)C3=CC=CC=C3C)CN4C=NC5=C(N=CN=C54)N
In short: as §1

[4] = compound: Cc1sc2c(c1C)C(c1ccc(Cl)cc1)=N[C@@H](CC(=O)OC(C)(C)C)c1nnc(C)n1-2
In short: as §1

[5] = compound: c1ccc([C@@H]2C[C@H]2NC2CCNCC2)cc1
In short: as §1

Measured: log2 fold change

SLC7A5 (UniProt Q01650)
inactive: [1] 0 | [2] 0.017 | [3] 0.019 | [4] -0.005 | [5] 0.043

SLC30A6 isoform 2 (UniProt Q6NXT4)
inactive: [1] -0.038 | [2] -0.054 | [3] 0.121 | [4] 0.023 | [5] -0.021

SLC25A14 isoform 3 (UniProt O95258)
inactive: [1] -0.02 | [2] -0.099 | [3] -0.05 | [4] 0.001 | [5] -0.104

SLC39A11 (UniProt Q8N1S5)
inactive: [1] 0.053 | [2] 0.072 | [3] 0.078 | [4] -0.323 | [5] -0.003

SLC2A1 (UniProt P11166)
inactive: [1] 0.003 | [2] 0.031 | [3] 0.001 | [4] 0.012 | [5] 0.014

SLC35A3 isoform 2 (UniProt Q9Y2D2)
inactive: [1] 0.058

SLC11A2 isoform 3 (UniProt P49281)
inactive: [1] 0.017 | [2] 0.039 | [3] -0.028 | [4] -0.004 | [5] 0.024

SLC12A6 isoform 2 (UniProt Q9UHW9)
inactive: [1] 0.081 | [2] 0.014 | [3] -0.02 | [4] 0.038 | [5] 0.023

SLC25A31 (UniProt Q9H0C2)
inactive: [1] 0.037 | [2] 0.015 | [3] -0.006 | [4] -0.012 | [5] -0.009

SLC25A51 (UniProt Q9H1U9)
inactive: [1] 0.036 | [2] 0.014 | [3] -0.002 | [4] -0.014 | [5] -0.045

SLC38A10 (UniProt Q9HBR0)
inactive: [1] 0.09 | [2] 0.039 | [3] 0.033 | [4] -0.021 | [5] 0.02

SLC25A28 (UniProt Q96A46)
inactive: [1] -0.157

SLC27A2 (UniProt O14975)
inactive: [1] 0.038 | [2] 0.036 | [3] 0.141 | [4] 0.011 | [5] -0.027

SLC35E1 (UniProt Q96K37)
inactive: [1] -0.024 | [2] -0.03 | [3] -0.061 | [4] 0.042 | [5] 0.106

SLC27A6 (UniProt Q9Y2P4)
inactive: [1] -0.04 | [2] 0.294 | [3] 0.171 | [4] 0.192 | [5] 0.176

SLC12A2 (UniProt P55011)
inactive: [1] 0.004 | [2] 0.038 | [3] 0.034 | [4] -0.003 | [5] -0.022

SLC35C1 (UniProt Q96A29)
inactive: [1] -0.085 | [2] 0.053 | [3] -0.041 | [4] -0.037 | [5] 0.067

SLC4A2 (UniProt P04920)
inactive: [1] -0.042 | [2] 0.016 | [3] 0.019 | [4] -0.038 | [5] 0.088

SLC39A6 (UniProt Q13433)
inactive: [1] -0.029 | [2] 0.061 | [3] 0.101 | [4] 0.059 | [5] 0.064

SLC4A3 isoform 3 (UniProt P48751)
inactive: [1] -0.101

SLC25A13 isoform 2 (UniProt Q9UJS0)
inactive: [1] 0.024 | [2] 0.028 | [3] -0.001 | [4] 0.007 | [5] 0.005

SLC25A10 isoform 2 (UniProt Q9UBX3)
inactive: [1] -0.003 | [2] -0.012 | [3] -0.03 | [4] -0.018 | [5] 0.006

SLC38A7 (UniProt Q9NVC3)
inactive: [1] 0.021 | [2] -0.031 | [3] -0.004 | [4] -0.035 | [5] 0.117

SLC50A1 (UniProt Q9BRV3)
inactive: [1] -0.17

SLC44A2 isoform 2 (UniProt Q8IWA5)
inactive: [1] 0.002 | [2] 0.077 | [3] -0.022 | [4] -0.045 | [5] 0.065

Quoted from above (twelve entries):
SLC38A10 (UniProt Q9HBR0)
inactive: [1] 0.09 | [2] 0.039 | [3] 0.033 | [4] -0.021 | [5] 0.02

SLC25A28 (UniProt Q96A46)
inactive: [1] -0.157

SLC27A2 (UniProt O14975)
inactive: [1] 0.038 | [2] 0.036 | [3] 0.141 | [4] 0.011 | [5] -0.027

SLC35E1 (UniProt Q96K37)
inactive: [1] -0.024 | [2] -0.03 | [3] -0.061 | [4] 0.042 | [5] 0.106

SLC27A6 (UniProt Q9Y2P4)
inactive: [1] -0.04 | [2] 0.294 | [3] 0.171 | [4] 0.192 | [5] 0.176

SLC12A2 (UniProt P55011)
inactive: [1] 0.004 | [2] 0.038 | [3] 0.034 | [4] -0.003 | [5] -0.022

SLC35C1 (UniProt Q96A29)
inactive: [1] -0.085 | [2] 0.053 | [3] -0.041 | [4] -0.037 | [5] 0.067

SLC4A2 (UniProt P04920)
inactive: [1] -0.042 | [2] 0.016 | [3] 0.019 | [4] -0.038 | [5] 0.088

SLC39A6 (UniProt Q13433)
inactive: [1] -0.029 | [2] 0.061 | [3] 0.101 | [4] 0.059 | [5] 0.064

SLC4A3 isoform 3 (UniProt P48751)
inactive: [1] -0.101

SLC25A13 isoform 2 (UniProt Q9UJS0)
inactive: [1] 0.024 | [2] 0.028 | [3] -0.001 | [4] 0.007 | [5] 0.005

SLC25A10 isoform 2 (UniProt Q9UBX3)
inactive: [1] -0.003 | [2] -0.012 | [3] -0.03 | [4] -0.018 | [5] 0.006

Next part

SLC26A11 (UniProt I3L0N9)
inactive: [1] -0.305

SLC66A1 (UniProt Q6ZP29)
inactive: [1] -0.171

SLC66A2 (UniProt Q8N2U9)
inactive: [1] 0.029

SLC36A1 (UniProt E5RG64)
inactive: [1] 0

SLC25A5 (UniProt P05141)
inactive: [1] -0.014 | [2] 0.013 | [3] 0.026 | [4] -0.076 | [5] -0.027

SLC35F5 (UniProt Q8WV83)
inactive: [1] -0.001

SLC12A9 (UniProt Q9BXP2)
inactive: [1] 0.013 | [2] -0.002 | [3] 0.014 | [4] -0.035 | [5] 0.028

SLC4A7 isoform 7 (UniProt Q9Y6M7)
inactive: [1] 0.046 | [2] 0.005 | [3] -0.003 | [4] 0.011 | [5] -0.052

SLC29A2 (UniProt Q14542)
inactive: [1] -0.07 | [2] 0 | [3] -0.008 | [4] -0.187 | [5] 0.075

SLC36A4 (UniProt Q6YBV0)
inactive: [1] 0.111

SLC43A3 isoform 2 (UniProt Q8NBI5)
inactive: [1] 0.003 | [2] 0.043 | [3] -0.037 | [4] -0.029 | [5] 0.057

SLC48A1 (UniProt Q6P1K1)
inactive: [1] -0.005

SLC33A1 (UniProt O00400)
inactive: [1] 0.036 | [2] 0.021 | [3] -0.012 | [4] -0.001 | [5] 0.007

SLC25A38 (UniProt Q96DW6)
inactive: [1] 0.014 | [2] 0.034 | [3] -0.035 | [4] -0.035 | [5] 0.014

SLC1A4 (UniProt P43007)
inactive: [1] 0.006 | [2] 0.022 | [3] 0.078 | [4] -0.015 | [5] 0.003

SLC2A13 (UniProt Q96QE2)
inactive: [1] -0.016 | [2] 0.065 | [3] 0.143 | [4] 0.034 | [5] -0.027

SLC3A2 isoform 3 (UniProt P08195)
inactive: [1] 0.001 | [2] 0.041 | [3] 0.003 | [4] -0.025 | [5] -0.009

SLC1A3 (UniProt P43003)
inactive: [1] -0.031 | [2] 0.003 | [3] -0.016 | [4] 0.17 | [5] 0.039

SLC30A5 (UniProt Q8TAD4)
inactive: [1] -0.076 | [2] 0.129 | [3] 0.096 | [4] -0.055 | [5] -0.02

SLC25A36 (UniProt Q96CQ1)
inactive: [1] 0.027 | [2] -0.041 | [3] -0.066 | [4] 0.051 | [5] -0.008

SLC19A1 (UniProt P41440)
inactive: [1] -0.025 | [2] 0.065 | [3] 0.045 | [4] -0.013 | [5] 0.017

SLC6A6 (UniProt P31641)
inactive: [1] -0.002 | [2] 0.065 | [3] 0.039 | [4] 0.018 | [5] 0.035

SLC30A7 (UniProt Q8NEW0)
inactive: [1] -0.033 | [2] 0.052 | [3] -0.049 | [4] 0.039 | [5] -0.011

SLC38A2 (UniProt Q96QD8)
inactive: [1] -0.006 | [2] 0.044 | [3] 0.024 | [4] -0.028 | [5] 0.035

SLC43A1 (UniProt O75387)
inactive: [1] 0.002 | [2] 0.07 | [3] 0.069 | [4] -0.022 | [5] -0.006

SLC25A23 isoform 3 (UniProt Q9BV35)
inactive: [1] 0.214 | [2] -0.02 | [3] -0.05 | [4] 0.002 | [5] 0.024

SLC25A44 (UniProt Q96H78)
inactive: [1] -0.004 | [2] 0.055 | [3] 0.003 | [4] -0.041 | [5] -0.013

SLC25A25 isoform 3 (UniProt Q6KCM7)
inactive: [1] 0.068 | [2] -0.019 | [3] 0.029 | [4] -0.023 | [5] 0.021

SLC38A5 (UniProt Q8WUX1)
inactive: [1] -0.026 | [2] 0.043 | [3] 0.019 | [4] 0.018 | [5] 0.062

SLC25A15 (UniProt Q9Y619)
inactive: [1] 0.009 | [2] 0.025 | [3] 0.018 | [4] -0.01 | [5] 0.016

SLC6A9 (UniProt P48067)
inactive: [1] 0.045 | [2] 0.021 | [3] -0.032 | [4] -0.022 | [5] 0.099

SLC16A1 (UniProt P53985)
inactive: [1] -0.062 | [2] 0.021 | [3] 0.149 | [4] 0.033 | [5] 0.047

SLC1A5 (UniProt Q15758)
inactive: [1] -0.003 | [2] 0.035 | [3] -0.026 | [4] 0.013 | [5] 0.022
